Data published in article doi:10.1101/2022.09.16.508288.
Results are given in words; binding and its absence hold for the method and conditions named. For part of these data: In cells and extracts the contact can be indirect. Some results given as binding are weak or reduced against the parent protein; the word gives no strength.

Chains of the proteins cited; added tags and fusions are not shown.
UniProt Q5DTM8: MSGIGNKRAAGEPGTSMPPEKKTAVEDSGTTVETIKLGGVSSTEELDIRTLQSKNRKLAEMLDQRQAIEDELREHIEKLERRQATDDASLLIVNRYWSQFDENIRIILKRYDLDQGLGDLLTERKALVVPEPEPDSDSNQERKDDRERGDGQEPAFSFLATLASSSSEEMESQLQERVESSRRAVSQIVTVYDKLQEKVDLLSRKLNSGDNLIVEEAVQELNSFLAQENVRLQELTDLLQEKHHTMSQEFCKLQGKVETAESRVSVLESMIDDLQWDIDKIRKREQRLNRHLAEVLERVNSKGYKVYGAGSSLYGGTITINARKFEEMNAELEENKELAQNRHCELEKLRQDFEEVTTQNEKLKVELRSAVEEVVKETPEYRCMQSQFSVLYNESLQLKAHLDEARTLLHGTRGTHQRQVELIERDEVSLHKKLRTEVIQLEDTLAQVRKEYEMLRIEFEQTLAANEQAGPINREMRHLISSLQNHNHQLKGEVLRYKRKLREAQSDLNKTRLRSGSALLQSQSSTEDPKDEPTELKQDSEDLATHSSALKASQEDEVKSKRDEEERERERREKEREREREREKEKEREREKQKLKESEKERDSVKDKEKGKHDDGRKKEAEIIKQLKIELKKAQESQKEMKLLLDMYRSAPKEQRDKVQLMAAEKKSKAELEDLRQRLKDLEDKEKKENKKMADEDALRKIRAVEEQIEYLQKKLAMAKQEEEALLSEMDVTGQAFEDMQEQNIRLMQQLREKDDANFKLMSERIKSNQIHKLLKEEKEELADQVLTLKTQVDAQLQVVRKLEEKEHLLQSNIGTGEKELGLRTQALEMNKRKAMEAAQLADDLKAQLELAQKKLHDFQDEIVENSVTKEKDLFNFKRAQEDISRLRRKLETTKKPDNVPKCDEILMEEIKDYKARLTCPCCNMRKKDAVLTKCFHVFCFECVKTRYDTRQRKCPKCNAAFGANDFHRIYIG

How the values were obtained:
[1] = target: Rnf20 (on the protein array) (UniProt Q5DTM8); assay: peptide or protein array
GST-Rnf20 fusion protein = GST-Rnf20 fusion protein (UniProt Q5DTM8); assay: pull-down
[2] = target: Rnf20 (in cardiac progenitors) (UniProt Q5DTM8); assay: co-IP

Row | Binder | binding [1] | binding (GST-Rnf20 fusion protein) | binding [2]
1 | recombinant Isl1 protein (protein, UniProt P61372 1-349) MGDMGDPPKKKRLISLCVGCGNQIHDQYILRVSPDLEWHAACLKCAECNQYLDESCTCFVRDGKTYCKRDYIRLYGIKCAKCSIGFSKNDFVMRARSKVYHIECFRCVACSRQLIPGDEFALREDGLFCRADHDVVERASLGAGDPLSPLHPARPLQMAAEPISARQPALRPHVHKQPEKTTRVRTVLNEKQLHTLRTCYAANPRPDALMKEQLVEMTGLSPRVIRVWFQNKRCKDKKRSIMMKQLQQQQPNDKTNIQGMTGTPMVAASPERHDGGLQANPVEVQSYQPPWKVLSDFALQSDIDQPAFQQLVNFSEGGPGSNSTGSEVASMSSQLPDTPNSMVASPIEA | binds | binds | –
2 | Isl1 (in cardiac progenitors) (protein, UniProt P61372 1-349) MGDMGDPPKKKRLISLCVGCGNQIHDQYILRVSPDLEWHAACLKCAECNQYLDESCTCFVRDGKTYCKRDYIRLYGIKCAKCSIGFSKNDFVMRARSKVYHIECFRCVACSRQLIPGDEFALREDGLFCRADHDVVERASLGAGDPLSPLHPARPLQMAAEPISARQPALRPHVHKQPEKTTRVRTVLNEKQLHTLRTCYAANPRPDALMKEQLVEMTGLSPRVIRVWFQNKRCKDKKRSIMMKQLQQQQPNDKTNIQGMTGTPMVAASPERHDGGLQANPVEVQSYQPPWKVLSDFALQSDIDQPAFQQLVNFSEGGPGSNSTGSEVASMSSQLPDTPNSMVASPIEA | – | – | binds
